PubChem BioAssay AID686937, Drosophila RNAi Screening Center | 2013

Assay: 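Genes whose loss weakens secretory pathway function in fly cells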 (primary screen)
Cells: Drosophila S2 cells expressing secreted horseradish peroxidase
Reagent: long dsRNA against Drosophila genes
Duration: about 5.5 days (5 days dsRNA, then 12 h reporter induction)
Conditions: reporter expression induced after 5 days of dsRNA, read 12 h later; inducer not stated
Read-out: 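After 5 days of dsRNA and 12 h of reporter induction, medium peroxidase read by chemiluminescence and scored as per-plate z-score; higher values mean more reporter released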
Reading the numbers: z-score: higher = more reporter secreted into medium
The screen tested about 23,000 reagents; below is an unselected part of those with a known target gene and a result. 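Reduced-secretion tags in replicate 1 do not always agree with the z-scores; no criterion for assigning the tags was given.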 A plus sign joins genes that one reagent is predicted to hit. No sequences are given here. Not given: the amount of reagent.

| gene knocked down | amplicon | z-score, replicate 1 | z-score, replicate 2 | z-score, replicate 3 | z-score, replicate 4 | phenotype, replicate 1 |
| --- | --- | --- | --- | --- | --- | --- |
| FoxP (Forkhead box P) | DRSC15159 | 0.15 | 0.36 | – | – | – |
| FoxP (Forkhead box P) | DRSC21961 | -0.88 | -0.13 | – | – | – |
| FASN1 (Fatty acid synthase 1) | DRSC00268 | -6.48 | -6.17 | – | – | reduced secretion |
| CG13766 | DRSC02271 | 0.12 | 0.21 | – | – | – |
| ohgt (ohgata) | DRSC15521 | 0.47 | 0.34 | – | – | – |
| Ugt36A1 (UDP-glycosyltransferase family 36 member A1) | DRSC00748 | 0.44 | 0.3 | – | – | – |
| CG32983 | DRSC22367 | 0.21 | -0.21 | – | – | – |
| CG17195 | DRSC15188 | 0.13 | 0.36 | – | – | – |
| CG31093 | DRSC15689 | 0.17 | 0.22 | – | – | – |
| CG9915 | DRSC20217 | -0.18 | -0.11 | – | – | – |
| CG9915 | DRSC21565 | 0.96 | 0.5 | – | – | – |
| FANCI (Fanconi anemia complementation group I) | DRSC06416 | 0.29 | 0.13 | – | – | – |
| Glut4EF (Glucose transporter 4 enhancer factor) | DRSC14347 | -0.71 | -0.97 | – | – | – |
| Glut4EF (Glucose transporter 4 enhancer factor) | DRSC14512 | 0.17 | 0.56 | – | – | – |
| Glut4EF (Glucose transporter 4 enhancer factor) | DRSC14541 | 0.2 | 0.67 | – | – | – |
| Glut4EF (Glucose transporter 4 enhancer factor) | DRSC14542 | 0.04 | 0.36 | – | – | – |
| Glut4EF (Glucose transporter 4 enhancer factor) | DRSC14543 | 0.08 | -0.48 | – | – | – |
| CG30466 | DRSC05556 | 0.04 | 0.38 | – | – | – |
| Cln7 | DRSC11005 | 0.39 | 0.32 | – | – | – |
| CG12470 | DRSC18620 | 0.4 | 0.33 | – | – | – |
| UQCR-14 (Ubiquinol-cytochrome c reductase 14 kDa subunit) | DRSC19870 | 0.05 | -0.57 | – | – | – |
| CG30178 | DRSC21911 | -0.19 | -0.05 | – | – | – |
| Phm (Peptidylglycine-alpha-hydroxylating monooxygenase) | DRSC04639 | 0.22 | 0.27 | – | – | – |
| Coq3 (Coenzyme Q3) | DRSC03168 | 0.08 | 0.15 | – | – | – |
| cona (corona) | DRSC16281 | 0.05 | 0.2 | – | – | – |
| ppk20 (pickpocket 20) | DRSC16260 | 0.26 | 0.31 | – | – | – |
| HBS1 | DRSC08544 | -0.06 | 0.44 | – | – | – |
| CG13995 | DRSC00907 | 1.11 | 0.3 | 0.41 | 0.04 | – |
| CG13995 | DRSC02327 | 0.27 | 0.22 | – | – | – |
| CG13995 | DRSC22767 | 0.38 | 0.4 | – | – | – |
| Tsp68C (Tetraspanin 68C) | DRSC09295 | 0.01 | 0.21 | – | – | – |
| vis + achi | DRSC07277 | 0.3 | 0.46 | – | – | – |
| CG7133 | DRSC11798 | 0.21 | 0.24 | – | – | – |
| Sfxn2 (Sideroflexin 2) | DRSC10718 | 0.34 | 0.4 | – | – | – |
| Lgr1 (Leucine-rich repeat-containing G protein-coupled receptor 1) | DRSC16675 | 0.4 | 0.46 | – | – | – |
| ItgaPS5 (Integrin alphaPS5 subunit) | DRSC04501 | 0.01 | 0.3 | – | – | – |
| ver (verrocchio) | DRSC10125 | 0.31 | 0.38 | – | – | – |
| CG42458 | DRSC08881 | 0.37 | 0.34 | – | – | – |
| CG42458 | DRSC10335 | 0.14 | -0.45 | – | – | – |
| CG13192 | DRSC06317 | 0.1 | 0.07 | – | – | – |
| dap (dacapo) | DRSC07601 | 0.23 | 0.35 | – | – | – |
| CG5863 | DRSC15898 | -0.14 | 0.04 | – | – | – |
| fwd (four wheel drive) | DRSC08580 | 0.13 | 0.35 | – | – | – |
| CG16896 | DRSC04284 | 0.18 | 0.12 | – | – | – |
| CG15125 | DRSC06547 | 0.51 | 0.28 | – | – | – |
| CG31262 | DRSC13216 | 0.48 | 0.45 | – | – | – |
| CG5172 | DRSC19936 | -0.45 | -1.23 | – | – | – |
| Ugt49C1 (UDP-glycosyltransferase family 49 member C1) | DRSC04252 | 0.12 | 0.29 | – | – | – |
| att-ORFB + DPCoAC | DRSC15556 | 0.29 | 0.43 | – | – | – |
| CG33791 + CG12105 + CG18170 | DRSC08387 | 0.45 | 0.34 | – | – | – |
| CG17944 | DRSC12572 | 0 | 0.01 | – | – | – |
| l(3)04053 (lethal (3) 04053) | DRSC11640 | -1.11 | 0.22 | 0.32 | -0.7 | – |
| Non1 (Novel nucleolar protein 1) | DRSC05954 | 0.16 | -0.55 | – | – | – |
| tea (telomere ends associated) | DRSC06110 | 0.2 | -0.04 | – | – | – |
| tea (telomere ends associated) | DRSC06236 | 0.03 | -0.14 | – | – | – |
| synr (sayonara) | DRSC02369 | 0.81 | 0.66 | – | – | – |
| ana (anachronism) | DRSC07579 | -0.17 | 0.18 | – | – | – |
| Ns4 (Nucleostemin 4) | DRSC03199 | 0.34 | 0.26 | – | – | – |
| pk (prickle) | DRSC06178 | 0.46 | 0.48 | – | – | – |
| pk (prickle) | DRSC07664 | 0.55 | 0.62 | – | – | – |
| pk (prickle) | DRSC22156 | -0.63 | 0.32 | – | – | – |
| Meics (Meiotic central spindle) | DRSC11413 | 0.08 | -0.08 | – | – | – |
| Pkc98E (Protein C kinase 98E) | DRSC16791 | 0.12 | 0.45 | – | – | – |
| MED19 (Mediator complex subunit 19) | DRSC10516 | -5.08 | -4.62 | – | – | reduced secretion |
| CG3457 | DRSC18509 | 0.51 | 0.48 | – | – | – |
| bor (belphegor) | DRSC16915 | -0.12 | -0.83 | – | – | – |
| CG34286 | DRSC13372 | 0.07 | 0.47 | – | – | – |
| CG34286 | DRSC21790 | -0.78 | -0.23 | – | – | – |
| Skp2 + CG1103 | DRSC12160 | 0.13 | 0.06 | – | – | – |
| Skp2 + CG1103 | DRSC22356 | -0.05 | -0.05 | – | – | – |
| CG8460 | DRSC03090 | 0.28 | 0.19 | – | – | – |
| CG11999 | DRSC12185 | 0.35 | 0.48 | – | – | – |
| CG34025 | DRSC08014 | 0 | 0.41 | – | – | – |
| Rpp25 (Ribonuclease P/MRP subunit p25) | DRSC05002 | 0.15 | 0.41 | – | – | – |
| Or85d (Odorant receptor 85d) | DRSC16767 | 0.13 | 0.38 | – | – | – |
| CG16790 | DRSC15156 | 0.21 | 0.38 | – | – | – |
| Tmep (Transmembrane endosomal protein) | DRSC08215 | 0.13 | 0.41 | – | – | – |
| pic (piccolo) | DRSC16639 | -0.46 | -1.34 | – | – | – |
| GILT3 (Gamma-interferon-inducible lysosomal thiol reductase 3) | DRSC14672 | -0.58 | 0.01 | – | – | – |
| CG12768 | DRSC11680 | 0.2 | -0.22 | – | – | – |
| CG15408 | DRSC00423 | 0.13 | 0.39 | – | – | – |
| SoYb | DRSC02901 | -0.29 | 0.3 | – | – | – |
| RpL12 (Ribosomal protein L12) | DRSC04344 | -3.45 | -4.16 | – | – | reduced secretion |
| Incenp (Inner centromere protein) | DRSC06116 | -0.06 | -0.21 | – | – | – |
| Incenp (Inner centromere protein) | DRSC21950 | 0.71 | -0.48 | – | – | – |
| Ada (Adenosine deaminase) | DRSC14463 | 0.06 | 0.22 | – | – | – |
| Listericin | DRSC07334 | 0.33 | 0.28 | – | – | – |
| Spt20 | DRSC10280 | -3.46 | -3.22 | – | – | reduced secretion |
| CG1582 | DRSC19732 | 0.24 | 0.46 | – | – | – |
| mRpS9 (mitochondrial ribosomal protein S9) | DRSC12645 | -0.42 | -0.36 | – | – | – |
| mRpS9 (mitochondrial ribosomal protein S9) | DRSC15456 | 0.39 | 0.2 | -0.38 | 0.28 | – |
| mRpL23 (mitochondrial ribosomal protein L23) | DRSC08307 | -0.39 | 0.12 | – | – | – |
| E(spl)m6-BFM (Enhancer of split m6, Bearded family member) | DRSC16993 | 0.19 | 0.31 | – | – | – |
| Arfip (Arfaptin) | DRSC15179 | 0.32 | 0.42 | – | – | – |
| CG9747 | DRSC16554 | 0.25 | -0.45 | -0.18 | 0.21 | – |
| CG10469 | DRSC09729 | 0.09 | 0.26 | – | – | – |
| CG7408 | DRSC10841 | 0.19 | 0.25 | – | – | – |
| Tim17a2 | DRSC12252 | 0.54 | 0.22 | – | – | – |
| AstA (Allatostatin A) | DRSC14634 | 0.48 | 0.48 | – | – | – |
| Epp (Ecdysteroid phosphate phosphatase) | DRSC14607 | 0.24 | 0.03 | – | – | – |
| Rassf (Ras association family member) | DRSC15612 | 0.29 | 0.29 | – | – | – |
| Cyp4p1 (Cytochrome P450 4p1) | DRSC07372 | 0.38 | 0.33 | – | – | – |
| Gr64a (Gustatory receptor 64a) | DRSC21713 | -0.07 | 0.45 | – | – | – |
| CG7607 | DRSC10889 | 0.42 | 0.38 | – | – | – |

A few values from the entries so far.
CG17195 [DRSC15188], z-score, replicate 2 = 0.36
Entry of CG15125 [DRSC06547] under “z-score, replicate 1”: 0.51
Rassf (Ras association family member) [DRSC15612], z-score, replicate 1: 0.29
Entry of ana (anachronism) [DRSC07579] under “z-score, replicate 2”: 0.18
Sfxn2 (Sideroflexin 2) [DRSC10718], z-score, replicate 1 = 0.34
Entry for CG17944 [DRSC12572] in “z-score, replicate 1”: 0
